From the supplement of paper PMC4604168 (melanoma cell lines)
This is one part of the list. Single values are uncertain, as repeats are few or missing.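 The apoptosis fraction was the count of cleaved-PARP antibody-stained nuclei relative to all DNA-stained nuclei, imaged in 1,536-well plates. Screening doses were set so most cells survived, and baseline and induced cleaved-PARP levels vary greatly across cell lines.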

test system: COLO800; experiment: cleaved PARP positive nuclei fraction relative to DMSO control; melanoma cells; higher = more apoptosis; settings: library dose: low library concentration; 72 h

Point of comparison: `CC[C@]1(O)C[C@H]2CN(CCc3c([nH]c4ccccc34)[C@@](C(=O)OC)(c3cc4c(cc3OC)N(C=O)[C@H]3[C@@](O)(C(=O)OC)[C@H](OC(C)=O)[C@]5(CC)C=CCN6CC[C@]43[C@@H]65)C2)C1` [vincristine] + CO[C@@H]1[C@H](N(C)C(=O)c2ccccc2)C[C@H]2O[C@]1(C)n1c3ccccc3c3c4c(c5c6ccccc6n2c5c31)C(=O)NC4 [Midostaurin] (first compound 0.0001 µM, partner dose 0.08 µM), “cleaved PARP positive nuclei fraction” value 12.6%. Against it:
- O=c1[nH]nc(Sc2ncc([N+](=O)[O-])s2)n1-c1ccc2c(c1)OCCO2 + COc1cc2c(Oc3ccc4[nH]c(C)cc4c3F)ncnc2cc1OCCCN1CCCC1 [cediranib] (first compound 0.2 µM, partner dose 0.4 µM) — higher, 135%
- Cc1cc(Nc2cc(N3CCN(C)CC3)nc(Sc3ccc(NC(=O)C4CC4)cc3)n2)n[nH]1 [Tozasertib] + NC(=O)Nc1cc(-c2cccc(F)c2)sc1C(=O)N[C@H]1CCCNC1 [AZD7762] (first compound 0.006 µM, partner dose 0.02 µM) — higher, 23.5%
- Cc1cn(-c2cc(NC(=O)c3ccc(C)c(Nc4nccc(-c5cccnc5)n4)c3)cc(C(F)(F)F)c2)cn1 [nilotinib] + O=C(Nc1cccc(Cl)c1)Nc1ncc(CCNc2ncnc3ccsc23)s1 [SNS314] (first compound 0.2 µM, partner dose 0.0008 µM) — higher, 133%
- CCCCCCCCCCCCCCCCCCOP(=O)([O-])OC1CC[N+](C)(C)CC1 [Perifosine] + CC(C)(C)c1cnc(CSc2cnc(NC(=O)C3CCNCC3)s2)o1 [SNS-032] (first compound 0.4 µM, partner dose 0.01 µM) — higher, 43.8%
- O=C(Nc1cc(C(F)(F)F)cc(C(F)(F)F)c1)c1cc(Cl)ccc1O + NCC(=O)Nc1ccc(-n2nc(C(F)(F)F)cc2-c2ccc3c(ccc4ccccc43)c2)cc1 [OSU03012] (first compound 0.016 µM, partner dose 1 µM) — higher, 102%
- CCCCCCCCCCCCCCCCCCOP(=O)([O-])OC1CC[N+](C)(C)CC1 [Perifosine] + O=C(O)c1ccc(-c2c[nH]c3ncc(-c4ccccc4)cc23)cc1C1CCCC1 [GSK650394] (first compound 0.4 µM, partner dose 0.16 µM) — higher, 63.2%
- O=C(Nc1cc(C(F)(F)F)cc(C(F)(F)F)c1)c1cc(Cl)ccc1O + C[C@@H]1CCN(C(=O)CC#N)C[C@@H]1N(C)c1ncnc2[nH]ccc12 [CP690550] (first compound 0.016 µM, partner dose 1 µM) — higher, 62.4%
- COc1cc([C@@H]2c3cc4c(cc3[C@@H](O[C@@H]3O[C@@H]5CO[C@@H](C)O[C@H]5[C@H](O)[C@H]3O)[C@H]3COC(=O)[C@H]23)OCO4)cc(OC)c1O [etoposide] + OCCn1cc(-c2cnc3nnn(Cc4ccc5ncccc5c4)c3n2)cn1 [PF04217903] (first compound 0.02 µM, partner dose 1 µM) — higher, 110%
- CCCCCCCCCCCCCCCCCCOP(=O)([O-])OC1CC[N+](C)(C)CC1 [Perifosine] + C[C@@H]1CCN(C(=O)CC#N)C[C@@H]1N(C)c1ncnc2[nH]ccc12 [CP690550] (first compound 0.4 µM, partner dose 1 µM) — higher, 83.2%
- O=C(/C=C/c1cccnc1)NCCCCC1CCN(C(=O)c2ccccc2)CC1 + Cc1ccc(NC(=O)c2cccc(N(C)C)c2)cc1NC(=O)c1ccc(O)cc1 [ZM336372] (first compound 0.01 µM, partner dose 2 µM) — higher, 43.1%
- Cc1ccc(Nc2nccc(N(C)c3ccc4c(C)n(C)nc4c3)n2)cc1S(N)(=O)=O [Pazopanib] + COc1cc(Nc2ncc(F)c(Nc3ccc4c(n3)NC(=O)C(C)(C)O4)n2)cc(OC)c1OC [Tamatinib] (first compound 0.4 µM, partner dose 0.4 µM) — higher, 105%
- N#CC[C@H](C1CCCC1)n1cc(-c2ncnc3[nH]ccc23)cn1 [ruxolitinib] + COc1cc(Nc2ncc(F)c(Nc3ccc4c(n3)NC(=O)C(C)(C)O4)n2)cc(OC)c1OC [Tamatinib] (first compound 1 µM, partner dose 0.4 µM) — higher, 101%
